Test results from PubChem BioAssay AID651640 (Broad Institute, 2012).
Among all 350,000 compounds or so, about 6,000 (1.7%) were called active. This list was built around the results that the source calls inconclusive (neither active nor inactive); the mix of calls is not that of the screen. No stated cut-off is given here; in the data, active means CPE inhibition above about 20% (passing the limit was not always enough); inconclusive means no clear call, values can overlap the other calls; tested in BHK-21 cells.

Test: protection of cells from dengue 2 killing – plate reader, single concentration, primary screen (AID 651640);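 further: 0% = median of neutral control wells and 100% = median of positive control wells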
Details: DENV2-infected cells, cytopathic effect rescue, at 9.99 µM, stronger effect = higher value

SMILES | CPE inhibition
COCCNC(=O)[C@@H]1[C@@H](CO)[C@@H]2Cn3c(ccc(-c4ccccc4)c3=O)[C@H]1N2C(=O)NC(C)C | inconclusive: 37.9%
C[C@H](CO)N1C[C@H](C)[C@@H](CN(C)Cc2ccccc2)OCCCC[C@H](C)Oc2ccc(NC(=O)Nc3ccc(F)cc3)cc2C1=O | inactive: -7.35%
C=CCOn1c(-n2nc(C)cc2C)nc2ccccc2c1=O | inactive: 6.3%
COc1ccc([C@@H]2[C@@H]3C(=O)N(C(C)(C)C)C(=O)[C@@H]3[C@]3(Cc4ccccc4)C(=O)N(c4ccccc4)C(=O)N23)cc1 | inconclusive: 24.1%
CN(C)CC(=O)N[C@H]1CC[C@H](CCNC(=O)C2CCCC2)O[C@H]1CO | active: 26.7%
C=CCn1c(SCC(=O)NC2CCCC2)nnc1-c1cccnc1 | inconclusive: 24.4%
C[C@@H]1CCCCO[C@@H](CN(C)S(=O)(=O)c2ccc(F)cc2)[C@@H](C)CN([C@H](C)CO)C(=O)c2cc(NC(=O)C3CCCCC3)ccc2O1 | inconclusive: 34.6%
CN1C(=O)c2cc(NC(=O)c3cccc(F)c3)ccc2OC[C@@H]2O[C@@H](CC(=O)Nc3ccccc3)CC[C@H]21 | inactive: -10.9%
COc1ccc(S(=O)(=O)N2CCC3CC2c2cc(-c4ccc5c(c4)OCO5)ccc23)cc1 (configuration not stated) | active: 88.7%
COc1ccc2c3c([nH]c2c1)[C@H](CO)N(Cc1cccc(F)c1)CC31CCN(C(C)=O)CC1 | inactive: 6.9%
C[C@@H]1CN([C@H](C)CO)C(=O)Cc2cc(NC(=O)Nc3ccc(F)cc3)ccc2O[C@H]1CN(C)C | inconclusive: 23.4%
O=C(/C=C/c1ccc(Cl)cc1)Nc1ccc(N2CCOCC2)cc1 | inconclusive: 63.3%
COCC(=O)N1C[C@H]2[C@@H](c3ccccc31)[C@H](CO)N2C(=O)c1ccncc1 | inconclusive: 20.6%
C[C@@H]1CCCCO[C@@H](CN(C)C(=O)Nc2ccccc2)[C@@H](C)CN([C@@H](C)CO)C(=O)c2cc(NC(=O)CCC(F)(F)F)ccc2O1 | inconclusive: 34.2%
CCN1C(=O)[C@@H]2[C@H](C1=O)[C@@H]1C[C@H]3C(=O)N(CC)C(=O)[C@H]3[C@@H]3C1=C(C(=O)N1C(=O)OC(=NCC4CC4)[C@]31C)[C@@H]2C | inconclusive: 21.2%
O=C(Cc1ccccn1)N1CC(=O)N2[C@H](C1)[C@H](c1ccc(-c3ccccc3)cc1)[C@@H]2CO | inconclusive: 41.9%
C[C@@H]1CN([C@H](C)CO)C(=O)c2cc(N(C)C)ccc2O[C@@H]1CN(C)C(=O)Nc1ccc(F)cc1 | inconclusive: 21.2%
Cc1noc(C)c1NC(=O)N(C)C[C@@H]1OCc2ccccc2-c2ccccc2C(=O)N([C@H](C)CO)C[C@H]1C | inactive: 1.93%
Cn1ncc([N+](=O)[O-])c1C(=O)Nc1cc(Cl)ccc1Cl | inconclusive: 44.4%
CCC(=O)Nc1ccc2c(c1)C(=O)N(C)[C@H]1CC[C@@H](CC(=O)N[C@H](C)c3ccccc3)O[C@@H]1CO2 | inactive: -1.88%
Cc1ccc(S(=O)(=O)Nc2ccc3c(c2)nc(CCN2CCN(c4ccccn4)CC2)n3C)cc1 | inconclusive: 23.2%
C[C@H]1CN([C@@H](C)CO)C(=O)c2cc(Br)cnc2O[C@H]1CN(C)Cc1ccccn1 | inconclusive: 5.71%
Cc1ccc(S(=O)(=O)Nc2ccc3c(c2)C(=O)N([C@@H](C)CO)C[C@@H](C)[C@H](CN(C)Cc2ccncc2)OCCCC[C@H](C)O3)cc1 | inactive: -4.02%

SMILES | CPE inhibition
C[C@H](CO)N1C[C@H](C)[C@@H](CN(C)C(=O)CN(C)C)Oc2ncc(C#Cc3ccccc3)cc2C1=O | inconclusive: 20.5%
Cc1noc(C)c1NC(=O)N(C)C[C@@H]1Oc2c(cccc2N(C)C)C(=O)N([C@H](C)CO)C[C@H]1C | inactive: -7.42%
O=C(Cc1cccc(NC(=O)C2CCCN(C(=O)CCc3ccccc3)C2)c1)Nc1cccc(C(=O)N2CCOCC2)c1 (configuration not stated) | inactive: -0.266%
CN(C)CC(=O)Nc1ccc2c(c1)[C@H]1C[C@H](CC(=O)NCCN3CCCCC3)O[C@@H](CO)[C@H]1O2 | inconclusive: 24.1%
COc1ccc(-c2sc(Nc3ccccc3)n[n+]2-c2ccc(F)cc2)c(OC)c1OC | active: 136%
COc1ccc(-c2ccc3c(c2)S(=O)(=O)c2cccc(C(=O)O)c2C3=O)cc1OC | inconclusive: 45.8%
O=C(Nc1ccc2c(c1)[C@H]1C[C@H](CC(=O)N3CCCCC3)O[C@H](CO)[C@H]1O2)NC1CCCC1 | inconclusive: 27.6%
N#C[C@H]1[C@@H](c2ccc(-c3ccccc3F)cc2)[C@@H](CO)N1C(=O)C1CCC1 | inactive: -7.12%
O=S1(=O)CC(N2CCN(Cc3ccccc3F)CC2)CN1Cc1cn(Cc2ccc(Cl)cc2)nn1 (configuration not stated) | inactive: 10.3%
C[C@@H]1CN([C@H](C)CO)C(=O)c2cc(NC(=O)Nc3ccccc3)ccc2O[C@@H]1CN(C)C(=O)Nc1cccc2ccccc12 | inactive: -7.4%
Cn1cc(CN(CCCN2CCOCC2)C(=S)Nc2cccc(Cl)c2)c2ccccc21 | active: 40.1%
O=C(C[C@H]1CC[C@H](NC(=O)C2CC2)[C@H](CO)O1)NCc1ccccc1Cl | inconclusive: 22.7%
C[C@H]1CN([C@@H](C)CO)C(=O)c2cccc(NC(=O)Nc3ccc4c(c3)OCO4)c2O[C@@H]1CN(C)C | inactive: 2.19%
C[C@@H]1CN([C@@H](C)CO)C(=O)Cc2cc(NC(=O)Nc3ccccc3)ccc2O[C@@H]1CN(C)Cc1ccc2c(c1)OCO2 | inconclusive: 22.8%
O=C(CCCN1C(=O)/C(=C\c2ccccc2)SC1=S)N1CCOCC1 | inactive: -6.17%
CCC(=O)N1C[C@@H](C)[C@H](OC)CN(C)C(=O)c2ccc(NC(=O)c3cnccn3)cc2OC[C@@H]1C | inactive: -9.83%
O=[N+]([O-])c1ccc(SNc2ccccc2)c([N+](=O)[O-])c1 | inconclusive: 43.4%
O=C(CSc1nncn1-c1cccnc1)Nc1ccccc1C(F)(F)F | inconclusive: 41.2%
C[C@@H]1CCCCO[C@H](CN(C)C)[C@H](C)CN([C@H](C)CO)C(=O)c2cc(NC(=O)Nc3cccc4ccccc34)ccc2O1 | active: 74%
CC(C)C#Cc1cnc2c(c1)C(=O)N([C@@H](C)CO)C[C@H](C)[C@H](CN(C)C(=O)c1cnccn1)O2 | inactive: 0.113%
C=CCNC(=O)c1onc(CSc2cc(C)ccc2C)c1C(=O)O | inconclusive: 34.6%
C[C@H]1CCCCO[C@H](CN(C)C(=O)Nc2cccc3ccccc23)[C@@H](C)CN([C@@H](C)CO)C(=O)c2cc(N(C)C)ccc2O1 | inactive: -4.65%
O=C(NCc1ccccn1)C1CCN(S(=O)(=O)c2ccccc2F)CC1 | inactive: 4.5%

SMILES | CPE inhibition
O=C(C1CCOCC1)N1C[C@H]2[C@@H](c3ccccc31)[C@@H](CO)N2C(=O)c1ccccc1 | active: 96.8%
CCCNC(=O)N(C)C[C@H]1Oc2cc(-c3ccccc3)ccc2S(=O)(=O)N([C@H](C)CO)C[C@@H]1C | inconclusive: 4.85%
O=C(Nc1ccc(F)cc1)N[C@@H]1CC[C@@H](CC(=O)N2CCCCC2)O[C@H]1CO | inconclusive: 36.6%
COc1ccc(N(C(=O)CNC(=O)c2ccco2)C(C(=O)NC2CCCC2)c2cccnc2)cc1 (configuration not stated) | inconclusive: 29%
CN1c2ccc(C#Cc3cccnc3)cc2[C@@H]2[C@@H](CCN2C(=O)Cc2cccnc2)[C@H]1CO | inconclusive: 36.4%
CCCNC(=O)c1ccc(N2CCC3(CC2)CC(c2ccc(Cl)cc2)=NO3)c([N+](=O)[O-])c1 | inconclusive: 33.5%
N#Cc1ccc(OCC(=O)N2CCc3ccccc32)cc1 | inconclusive: 42.5%
C=CCn1c(CCSCc2ccc(OC)c(C)c2)n[nH]c1=S | inactive: -0.0175%
COc1cc(/C=N/NC(=O)c2ccc(O)cc2)ccc1OCC(=O)N1CC(C)OC(C)C1 (configuration not stated) | inconclusive: 43.9%
CCN(C[C@H]1N[C@@](CC)(C(=O)OC)[C@H]2C(=O)N(Cc3ccccc3)C(=O)[C@@H]12)C(=O)COc1ccccc1 | active: 66.4%
C[C@@H]1CN([C@H](C)CO)C(=O)c2cc(NC(=O)CCC(F)(F)F)ccc2O[C@@H](C)CCCCO[C@@H]1CN(C)C(=O)C1CCCCC1 | active: 87.5%
O=C(CN1CCN(S(=O)(=O)c2ccc(Br)s2)CC1)NC1CCCCC1 | inconclusive: 45%
COc1ccc2nc(NN=Cc3cccc(C)n3)cc(C)c2c1 | active: 54.4%
COc1cccc(-c2cccc(-c3nc(C(=O)N(C)C)cc4c3[C@H](CCO)N([S@@](=O)C(C)(C)C)C4)c2)c1 | inactive: 5.86%
O=[N+]([O-])c1ccccc1OCc1nc(-c2cccs2)no1 | active: 23.4%
CO[C@H]1CN(C)C(=O)c2ccc(NC(=O)Nc3ccccc3F)cc2OC[C@@H](C)N(C)C[C@H]1C | inactive: -9.27%
CCc1sc(N2[C@H](C#N)[C@H](c3ccccc3-c3ccccc3)[C@H]2CO)nc1C | active: 76.5%
Oc1ccc(Cl)cc1CNCc1ccc(Cl)cc1 | inactive: -1.03%
CO[C@@H]1CC[C@@H]2CCOc3ccc(C#N)cc3C(=O)N(C)C[C@@H](c3ccccc3)CC(=O)N(C)C[C@H]1O2 | inactive: -2.69%
COCC(=O)Nc1ccc2c(c1)OC[C@@H](C)N(CCC(F)(F)F)C[C@H](C)[C@H](OC)CN(C)C2=O | inconclusive: 83.6%
C[C@@H]1CCCCO[C@@H](CN(C)C)[C@H](C)CN([C@@H](C)CO)C(=O)c2cc(NC(=O)Nc3ccc(C(F)(F)F)cc3)ccc2O1 | inconclusive: 58.8%

Three entries from above, with tabs.
SMILES	CPE inhibition
N#Cc1ccc(OCC(=O)N2CCc3ccccc32)cc1	inconclusive: 42.5%
COc1cc(/C=N/NC(=O)c2ccc(O)cc2)ccc1OCC(=O)N1CC(C)OC(C)C1 (configuration not stated)	inconclusive: 43.9%
COc1ccc2nc(NN=Cc3cccc(C)n3)cc(C)c2c1	active: 54.4%
